Assay [1] deals with T1, GAL4 BD-ScSgt2 1-346 (S. cerevisiae) (UniProt Q12118).
T1 sequence: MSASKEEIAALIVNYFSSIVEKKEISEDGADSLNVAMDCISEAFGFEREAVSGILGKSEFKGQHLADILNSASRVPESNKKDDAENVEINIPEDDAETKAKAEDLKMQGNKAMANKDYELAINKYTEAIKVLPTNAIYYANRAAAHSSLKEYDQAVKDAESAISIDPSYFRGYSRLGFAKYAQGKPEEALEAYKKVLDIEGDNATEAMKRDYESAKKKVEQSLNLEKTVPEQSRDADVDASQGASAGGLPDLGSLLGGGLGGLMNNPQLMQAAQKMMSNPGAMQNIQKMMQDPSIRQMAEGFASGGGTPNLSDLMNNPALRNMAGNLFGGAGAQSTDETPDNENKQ
Kind of assay: two-hybrid.

In assay [2] the target is T2, PEX38 89-103 wildtype 15-mer peptide (BS2) (T. brucei).
T2 sequence (peptide): DDKFNAFLDLLRKKG
Kind of assay: peptide or protein array; both purified.

No constants are given. Whether binding was seen depends on the method and setting. For part of these data: Binding calls can cover weak binding; strength is not graded here. For part of these data: Sequences can lack the tags named with a protein.

In publication PMC12956874 one finds binding data, which are given here for three substances.

For “GAL4 AD-TbPEX19 1-285 (full-length) (T. brucei)”, in assay [1], the binding result is “no binding”. On to “GST-TbPEX19 1-285 (full-length) (T. brucei)”, for which, in assay [2], the binding result was “binds”. In the case of “GAL4 AD-TbPEX19 31-285 (Δ30aa) (T. brucei) (domain or fragment)”, the binding result in assay [1] is recorded as “no binding”.
